Measurements: the supplement of paper PMC7877785
± gives the uncertainty stated by the source. The uncertainty is large for many entries.

Assay: self-splicing fitness, log relative to wild type (ln ratio); higher = more splicing; Tetrahymena group I intron in knt gene, E. coli kanamycin selection, DiMSum; sequences stand for … in CUCUCU…GGAGGGAAAAGUUAUCAGGCAUGCACCUGGUAGCUAGUCUUUAAACCAAUAGAUUGCAUCGGUUUAAAAGGCAAGACCGUCAAAUUGCGGGAAAGGGGUCAACAGCCGUUCAGUACCAAGUCUCAGGGGAAACUUUGAGAUGGCCUUGCAAAGGGUAUGGUAAUAAGCUGACGGACAUGGUCCUAACCACGCAGCCAAGUCCUAAGUCAACAGAUCUUCUGUUGAUAUGGAUGCAGUUCACAGACUAAAUGUCGGUCGGGGAAGAUGUAUUCUUCUCAUAAGAUAUAGUCGGACCUCUCCUUAAUGGGAGCUAGCGGAUGAAGUGAUGCAACACUGGAGCCGCUGGGAACUAAUUUGUAUGCGAAAGUAUAUUGAUUAGUUUUGGAGUACUCGUGGUCG
Summary of the method: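 A randomised library covering all eight P1ex-region intron nucleotides was built with the intron in the knt kanamycin-resistance gene on pET-22b(+) and held in E. coli BL21(DE3). Cells were grown overnight at 37°C or 30°C on LB agar, with or without 25 μg/mL kanamycin, plus 100 μg/mL carbenicillin, 50 μM IPTG and 0.2% rhamnose, and pooled colonies were amplicon-sequenced on an Illumina HiSeq 2500. DiMSum fitness is the error-weighted combination of wild-type-normalised replicate fold changes, kanamycin versus none.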

Row | Sequence | self-splicing fitness (ln) (30 °C) | self-splicing fitness (ln) (37 °C)
1 | AAACAGCAAUAUUACGUGGA | -3.1 ± 0.14 | -1.95 ± 0.1
2 | GCGCAGCAAUAUUACGCGCU | -3.52 ± 0.54 | -1.41 ± 0.28
3 | CUCGAGCAAUAUUACGCCAG | -3.33 ± 0.54 | -1.82 ± 0.52
4 | CCACAGCAAUAUUACGUCUU | -3.88 ± 0.14 | -2.85 ± 0.12
5 | UGUUAGCAAUAUUACGUCCC | -1.51 ± 0.67 | –
6 | GAGUAGCAAUAUUACGACUC | – | -1 ± 0.92
7 | GACGAGCAAUAUUACGCUGG | -4.94 ± 0.72 | –
8 | AUGCAGCAAUAUUACGAAUU | -1.9 ± 0.1 | -0.246 ± 0.12
9 | AAGGAGCAAUAUUACGCCUU | – | -2.76 ± 1.1
10 | UUUGAGCAAUAUUACGCUGA | – | -1.68 ± 0.53
11 | ACAUAGCAAUAUUACGAGAC | -3.32 ± 0.75 | -3.09 ± 0.52
12 | GCUGAGCAAUAUUACGAAAA | 0.636 ± 0.78 | –
13 | UGGCAGCAAUAUUACGUGCC | -4.23 ± 0.73 | –
14 | CUAGAGCAAUAUUACGUUCC | -4.16 ± 1 | –
15 | CCUUAGCAAUAUUACGCGCC | – | -2.79 ± 0.76
16 | CCUCAGCAAUAUUACGUCUC | – | -3.38 ± 0.6
17 | GCCGAGCAAUAUUACGCUGG | -4.11 ± 0.52 | –
18 | UCAGAGCAAUAUUACGCCCA | – | -1.11 ± 0.73
19 | GUCUAGCAAUAUUACGGCCG | -3.77 ± 1 | –
20 | AAUGAGCAAUAUUACGGUCC | – | -2.06 ± 0.58
21 | UUAUAGCAAUAUUACGUUCC | -1.55 ± 1.2 | –
22 | CCCUAGCAAUAUUACGCUGU | -4.59 ± 0.31 | -2.63 ± 0.21
23 | AGGGAGCAAUAUUACGGUAG | – | -2.79 ± 0.54

Record cards (already shown):
CCUUAGCAAUAUUACGCGCC as listed: self-splicing fitness (ln) (37 °C): -2.79 ± 0.76
CCCUAGCAAUAUUACGCUGU as listed: self-splicing fitness (ln) (30 °C): -4.59 ± 0.31; self-splicing fitness (ln) (37 °C): -2.63 ± 0.21
AUGCAGCAAUAUUACGAAUU as listed: self-splicing fitness (ln) (30 °C): -1.9 ± 0.1; self-splicing fitness (ln) (37 °C): -0.246 ± 0.12
UUAUAGCAAUAUUACGUUCC as listed: self-splicing fitness (ln) (30 °C): -1.55 ± 1.2

(next part)

Row | Sequence | self-splicing fitness (ln) (30 °C) | self-splicing fitness (ln) (37 °C)
24 | ACUAAGCAAUAUUACGGGGA | -1.84 ± 0.12 | -1.55 ± 0.13
25 | UGGGAGCAAUAUUACGCUGU | -4.4 ± 1 | –
26 | UCGAAGCAAUAUUACGAGUC | – | -2.77 ± 0.62
27 | ACGGAGCAAUAUUACGGACC | -4.4 ± 1 | –
28 | GAUUAGCAAUAUUACGUUUA | -2.9 ± 0.25 | -1.05 ± 0.15
29 | UCAAAGCAAUAUUACGCCUC | -2.99 ± 0.53 | –
30 | CAUUAGCAAUAUUACGCAGC | -4.26 ± 0.73 | -3.08 ± 0.74
31 | CGGAAGCAAUAUUACGGGUG | -0.485 ± 0.09 | 0.544 ± 0.086
32 | CUCUAGCAAUAUUACGAGCU | -2.71 ± 1.1 | 0.182 ± 0.53
33 | UUCUAGCAAUAUUACGGAGC | – | -4.71 ± 0.72
34 | GACUAGCAAUAUUACGCAGC | -3.5 ± 0.23 | -2.2 ± 0.31
35 | UCACAGCAAUAUUACGACCC | -1.91 ± 0.62 | -1.08 ± 0.59
36 | AGGGAGCAAUAUUACGCCCA | -1.26 ± 0.69 | -0.897 ± 0.34
37 | GCGGAGCAAUAUUACGCAAC | – | -2.08 ± 0.79
38 | UCUCAGCAAUAUUACGAAAU | -4.76 ± 1 | –
39 | ACUCAGCAAUAUUACGAUAA | -1.25 ± 0.078 | -0.67 ± 0.097
40 | AGGGAGCAAUAUUACGCAGC | – | -1.64 ± 0.73
41 | GCAGAGCAAUAUUACGAAGA | – | -2.03 ± 0.5
42 | UGCGAGCAAUAUUACGCGUC | – | -1.18 ± 0.92
43 | CUAGAGCAAUAUUACGUCAC | -3.34 ± 0.36 | -1.72 ± 0.29
44 | ACAGAGCAAUAUUACGCUAG | -3.28 ± 0.19 | -2.61 ± 0.18
45 | CUGAAGCAAUAUUACGAAAU | -3.78 ± 0.27 | -2.38 ± 0.25
46 | GGGUAGCAAUAUUACGUCUA | -0.297 ± 0.15 | 0.226 ± 0.16

Row | Sequence | self-splicing fitness (ln) (30 °C) | self-splicing fitness (ln) (37 °C)
47 | CGAGAGCAAUAUUACGAGAU | -3.59 ± 0.6 | -2.2 ± 1.1
48 | AUAGAGCAAUAUUACGGGCC | -2.71 ± 0.62 | -1.98 ± 1.1
49 | GGGUAGCAAUAUUACGGACC | -0.423 ± 0.91 | -1.23 ± 0.57
50 | UUCUAGCAAUAUUACGACGC | – | -1.08 ± 0.52
51 | GUGUAGCAAUAUUACGCUGG | -3.59 ± 0.38 | -1.54 ± 0.22
52 | UUAUAGCAAUAUUACGCACC | -2.61 ± 0.78 | -2.12 ± 0.79
53 | ACAGAGCAAUAUUACGCAGU | -4.31 ± 0.72 | –
54 | UAAGAGCAAUAUUACGCUAA | -3.89 ± 0.6 | –
55 | GUUGAGCAAUAUUACGGAAA | – | -1.75 ± 0.61
56 | AGGGAGCAAUAUUACGAAUA | -3.51 ± 0.76 | -2.55 ± 0.62
57 | AGAGAGCAAUAUUACGCGAG | – | -2.59 ± 0.54
58 | GCAGAGCAAUAUUACGAGGC | -2.71 ± 0.65 | -1.13 ± 0.71
59 | UCUGAGCAAUAUUACGUCCG | – | -2.06 ± 0.5
60 | GAGAAGCAAUAUUACGCCCC | -3.51 ± 0.53 | -2.61 ± 0.62
61 | AUGGAGCAAUAUUACGCUCC | -4.17 ± 1.1 | -1.78 ± 1.2
62 | GCUGAGCAAUAUUACGGUUG | -3.64 ± 0.31 | -2.67 ± 0.35
63 | UUCUAGCAAUAUUACGAGAG | -2.3 ± 0.22 | -2.4 ± 0.29
64 | CUUGAGCAAUAUUACGAACA | -0.631 ± 0.61 | -2.98 ± 0.75
65 | UCAGAGCAAUAUUACGUACU | -3.35 ± 0.34 | -2.24 ± 0.3
66 | GCCGAGCAAUAUUACGAUCG | – | -0.973 ± 0.57
67 | GCGAAGCAAUAUUACGGCCA | -0.992 ± 0.092 | -0.821 ± 0.1
68 | CUGGAGCAAUAUUACGAAGC | -3.94 ± 0.61 | -3.3 ± 0.74
69 | GUAGAGCAAUAUUACGCCCU | -0.327 ± 0.66 | 0.319 ± 0.7

Row | Sequence | self-splicing fitness (ln) (30 °C) | self-splicing fitness (ln) (37 °C)
70 | UGACAGCAAUAUUACGCUAU | -3.7 ± 0.2 | -1.09 ± 0.1
71 | GGUGAGCAAUAUUACGGGCC | -4.63 ± 1 | -2 ± 0.57
72 | GGCCAGCAAUAUUACGCCAA | -1.22 ± 0.65 | -2.77 ± 1.1
73 | AAGGAGCAAUAUUACGCACC | -4.26 ± 1 | –
74 | UAUUAGCAAUAUUACGUUUU | -2.42 ± 0.58 | –
75 | GUGGAGCAAUAUUACGCUGU | -3.19 ± 0.82 | -4.56 ± 0.59
76 | GGACAGCAAUAUUACGGUUA | -0.28 ± 0.097 | 0.525 ± 0.11
77 | UCUGAGCAAUAUUACGACAC | -1.27 ± 1.4 | -0.0848 ± 1.2
78 | AGUGAGCAAUAUUACGCGCC | – | -2.02 ± 0.58
79 | GUUCAGCAAUAUUACGUACU | -1.24 ± 0.1 | 0.162 ± 0.13
80 | AUCGAGCAAUAUUACGCUCU | -3.39 ± 0.55 | -3.23 ± 1
81 | GGUUAGCAAUAUUACGAGCC | -1.96 ± 1.2 | 0.171 ± 0.92
82 | CUGUAGCAAUAUUACGGAAC | -4.79 ± 0.51 | –
83 | AUUGAGCAAUAUUACGCUAG | -4.38 ± 0.72 | –
84 | GAAGAGCAAUAUUACGGUGC | -4.64 ± 0.73 | –
85 | CUCGAGCAAUAUUACGACGC | – | -3.23 ± 1
86 | GGGGAGCAAUAUUACGAACG | -2.3 ± 0.52 | –
87 | CCUGAGCAAUAUUACGGUCU | -5.01 ± 0.51 | –
88 | CCUGAGCAAUAUUACGAGUU | – | -3.8 ± 0.51
89 | AAAGAGCAAUAUUACGAUCC | -4.58 ± 0.51 | –
90 | CAUUAGCAAUAUUACGACUA | – | -1.33 ± 0.56
91 | AAAGAGCAAUAUUACGCCCU | -2.57 ± 0.21 | -0.718 ± 0.17
92 | CUUUAGCAAUAUUACGCGUG | -1.89 ± 0.14 | -1.12 ± 0.17

Row | Sequence | self-splicing fitness (ln) (30 °C) | self-splicing fitness (ln) (37 °C)
93 | GGUUAGCAAUAUUACGCACC | -3.51 ± 0.53 | -2.99 ± 1
94 | AUUGAGCAAUAUUACGCUUC | -4.72 ± 1 | –
95 | UCCCAGCAAUAUUACGCCCC | – | -0.234 ± 1.4
96 | GCGGAGCAAUAUUACGACGC | -4.41 ± 0.72 | –
97 | GUGCAGCAAUAUUACGUCUG | -3.63 ± 1 | -1.37 ± 0.55
98 | CGUUAGCAAUAUUACGACCC | – | -1.1 ± 0.75
99 | GCAGAGCAAUAUUACGCGUU | -1.48 ± 0.11 | -2.09 ± 0.16
100 | GGUUAGCAAUAUUACGCAGA | -1.17 ± 0.24 | -2.02 ± 0.26
101 | AGCCAGCAAUAUUACGGCCC | -2.02 ± 1.2 | –
102 | GUUCAGCAAUAUUACGGACC | -4.01 ± 0.6 | –
103 | GCAAAGCAAUAUUACGCUGC | – | -3.6 ± 1
104 | AAGGAGCAAUAUUACGAGAU | -3.4 ± 0.63 | –
105 | UUCUAGCAAUAUUACGGAAA | -2.01 ± 0.65 | –
106 | GGAGAGCAAUAUUACGCUAA | -4.03 ± 0.74 | -4.21 ± 1
107 | CGCGAGCAAUAUUACGCUAU | -3.44 ± 0.34 | -2.2 ± 0.23
108 | GCGGAGCAAUAUUACGCUGG | -3.6 ± 1 | –
109 | GGGCAGCAAUAUUACGCCUC | -3.87 ± 1 | -1.42 ± 0.31
110 | UCCUAGCAAUAUUACGCCGG | -4.18 ± 0.59 | –
111 | GGUAAGCAAUAUUACGCGAU | – | -2.33 ± 0.55
112 | UAUAAGCAAUAUUACGGUCC | – | -2.04 ± 0.51
113 | GGAGAGCAAUAUUACGCUUC | -0.483 ± 0.67 | –
114 | CAGGAGCAAUAUUACGGCCC | -1.32 ± 1.4 | -1.46 ± 0.74
115 | CGGGAGCAAUAUUACGACCG | -2.48 ± 1.1 | 0.299 ± 0.68
